According to article doi:10.1101/181180:

What was measured:
Test in all cases: affinity purification with mass spectrometry
[1] = molecular target: T1, Spp1-TAP (S. cerevisiae (SK1)) (UniProt Q03012)
T1 sequence: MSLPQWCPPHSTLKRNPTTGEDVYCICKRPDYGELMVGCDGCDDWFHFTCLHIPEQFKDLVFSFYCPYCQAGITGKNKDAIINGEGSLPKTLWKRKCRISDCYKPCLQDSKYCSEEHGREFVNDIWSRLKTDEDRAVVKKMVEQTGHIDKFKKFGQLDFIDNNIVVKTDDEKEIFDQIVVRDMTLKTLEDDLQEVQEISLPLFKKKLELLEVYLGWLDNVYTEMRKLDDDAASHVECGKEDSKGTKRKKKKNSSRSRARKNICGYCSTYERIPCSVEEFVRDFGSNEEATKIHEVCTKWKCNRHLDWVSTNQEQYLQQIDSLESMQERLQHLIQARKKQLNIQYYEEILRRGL

[2] = molecular target: T2, Mer2-TAP (S. cerevisiae (SK1)) (UniProt P21651)
T2 sequence: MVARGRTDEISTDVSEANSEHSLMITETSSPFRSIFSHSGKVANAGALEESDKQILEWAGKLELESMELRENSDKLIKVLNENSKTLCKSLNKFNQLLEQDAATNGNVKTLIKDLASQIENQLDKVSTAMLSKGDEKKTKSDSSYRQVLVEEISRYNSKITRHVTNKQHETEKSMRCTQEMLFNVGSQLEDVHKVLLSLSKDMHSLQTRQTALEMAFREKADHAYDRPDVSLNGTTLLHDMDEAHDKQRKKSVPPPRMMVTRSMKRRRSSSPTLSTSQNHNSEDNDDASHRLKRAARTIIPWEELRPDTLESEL

[3] = molecular target: T3, Mer2-TAP (S. cerevisiae (SK1)), P21651; conditions: remark: other sources report otherwise
T3 chain: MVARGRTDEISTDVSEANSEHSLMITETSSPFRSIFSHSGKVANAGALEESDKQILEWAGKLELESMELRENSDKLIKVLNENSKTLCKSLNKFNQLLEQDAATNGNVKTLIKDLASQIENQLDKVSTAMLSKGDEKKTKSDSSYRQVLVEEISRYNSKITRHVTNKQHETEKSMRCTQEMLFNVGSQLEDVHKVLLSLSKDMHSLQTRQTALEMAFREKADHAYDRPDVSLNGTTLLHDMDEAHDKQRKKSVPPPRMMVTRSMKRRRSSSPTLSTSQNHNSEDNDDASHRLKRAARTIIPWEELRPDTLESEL

B1: Mer2 (protein, UniProt P21651 1-314)
chain: MVARGRTDEISTDVSEANSEHSLMITETSSPFRSIFSHSGKVANAGALEESDKQILEWAGKLELESMELRENSDKLIKVLNENSKTLCKSLNKFNQLLEQDAATNGNVKTLIKDLASQIENQLDKVSTAMLSKGDEKKTKSDSSYRQVLVEEISRYNSKITRHVTNKQHETEKSMRCTQEMLFNVGSQLEDVHKVLLSLSKDMHSLQTRQTALEMAFREKADHAYDRPDVSLNGTTLLHDMDEAHDKQRKKSVPPPRMMVTRSMKRRRSSSPTLSTSQNHNSEDNDDASHRLKRAARTIIPWEELRPDTLESEL
binding [1]: binds

B2: Spp1 (protein, UniProt Q03012 1-353)
chain: MSLPQWCPPHSTLKRNPTTGEDVYCICKRPDYGELMVGCDGCDDWFHFTCLHIPEQFKDLVFSFYCPYCQAGITGKNKDAIINGEGSLPKTLWKRKCRISDCYKPCLQDSKYCSEEHGREFVNDIWSRLKTDEDRAVVKKMVEQTGHIDKFKKFGQLDFIDNNIVVKTDDEKEIFDQIVVRDMTLKTLEDDLQEVQEISLPLFKKKLELLEVYLGWLDNVYTEMRKLDDDAASHVECGKEDSKGTKRKKKKNSSRSRARKNICGYCSTYERIPCSVEEFVRDFGSNEEATKIHEVCTKWKCNRHLDWVSTNQEQYLQQIDSLESMQERLQHLIQARKKQLNIQYYEEILRRGL
binding [2]: binds

B3: Swd1 (protein, UniProt P39706 1-426)
chain: MNILLQDPFAVLKEHPEKLTHTIENPLRTECLQFSPCGDYLALGCANGALVIYDMDTFRPICVPGNMLGAHVRPITSIAWSPDGRLLLTSSRDWSIKLWDLSKPSKPLKEIRFDSPIWGCQWLDAKRRLCVATIFEESDAYVIDFSNDPVASLLSKSDEKQLSSTPDHGYVLVCTVHTKHPNIIIVGTSKGWLDFYKFHSLYQTECIHSLKITSSNIKHLIVSQNGERLAINCSDRTIRQYEISIDDENSAVELTLEHKYQDVINKLQWNCILFSNNTAEYLVASTHGSSAHELYIWETTSGTLVRVLEGAEEELIDINWDFYSMSIVSNGFESGNVYVWSVVIPPKWSALAPDFEEVEENVDYLEKEDEFDEVDEAEQQQGLEQEEEIAIDLRTREQYDVRGNNLLVERFTIPTDYTRIIKMQSS
binding [2]: no binding

B4: Mei4, P29467 1-408 (protein)
chain: MSRGKLEDMEQKETSEVDWIICFALIQSRNPTLWKRALSRKKGDVEDVGALKSEKNLKINPRENSKHIYKWVAPFENGFLNNKSLFAHLEPIYNFLCQNKYKSFEDAVGLKELQSFSKDVSTADINNWFLPRYKILLKILSLKTKEIDFRGLSQVFQTLQILLVSHYSHRIDSDSSFKRTLIDVHVFNFIAKFLFNRILLKKNQNDPKWLQNFYDQGDGKHLCDKVDYKRLCSLHFTLIYSIINIQLIKIKTNQTFEPQILKYVSVLKLIEHILIIIESLIHVLIRFVSKHKLICINRKKAYCRVYLERELSLKKTYLKNFYSVISGVPEKELGGLLKILKIVILSLLETFESIEWQHLKPFLEKFPAHEISLQKKRKYIQAALLITAERNLIARFRLSRWFNETENI
binding [3]: no binding

B5: Rec114, P32841 1-428 (protein)
chain: MYEYCSVVIKKYSKYTIPSFAPNGFQSMLEPPQIDKWQHLSANCTLQFRVLLMDSRQILINVVLNNSTLLENIRLPLGDNQDLIQFSCKSPIISCKYISEEFGPRMLRRFQMNLPNDVEFNRTVVSLKNLNFVLRTARTSIAQSTITSQVQGNNNGTKVCFTEGPKVSSYTNPNTQFQTQNMIMDFSQRYQEESERESNNRSNITLPHDSIQIAQQIWPNTDLNVVQSSQDLNTPMATQTVLGRPESLIVQPLEVSQSPPNTTNCLPNAENKKKKVDTTSDFTSRKEIALCKTGLLETIHIPKERESQMQSVTGLDATPTIIWSPGKDNTAKKNTSNKKNIDDKLTNPQKSGNTHTPDRNKEVLPNGTLNETRKEASPSEGLTIRVKNVNRNASRKISKRLIKEKLKDEEFMKWVNKVETVLNKMFEK
binding [3]: no binding

Results are given in words; binding and its absence hold for the method and conditions named. Binding seen in cells or lysates may run through a third protein. These calls come from enrichment with a bait or labelling near it, and not all partners need be listed. For some assays here: A no says only that the protein was not detected with the bait.
